Experimental data taken from paper PMC4226670.

Columns and labels:
GST-TAp73α = molecular target: T1, GST-TAp73α (UniProt O15350); assay: fluorescence polarization; conditions: TAp73 first, then p53 titrated, GST-XIAP had no effect; FP: 4 nM FAM duplex, 100 mM NaCl, 10 mM Tris-HCl pH 7.5, 10% glycerol, 5 mM DTT, 0.2 mg/mL BSA, room temperature; commercial protein; protein details: GST; label: 5' 6-FAM on strand 1
T1 sequence (looked up, limits assumed): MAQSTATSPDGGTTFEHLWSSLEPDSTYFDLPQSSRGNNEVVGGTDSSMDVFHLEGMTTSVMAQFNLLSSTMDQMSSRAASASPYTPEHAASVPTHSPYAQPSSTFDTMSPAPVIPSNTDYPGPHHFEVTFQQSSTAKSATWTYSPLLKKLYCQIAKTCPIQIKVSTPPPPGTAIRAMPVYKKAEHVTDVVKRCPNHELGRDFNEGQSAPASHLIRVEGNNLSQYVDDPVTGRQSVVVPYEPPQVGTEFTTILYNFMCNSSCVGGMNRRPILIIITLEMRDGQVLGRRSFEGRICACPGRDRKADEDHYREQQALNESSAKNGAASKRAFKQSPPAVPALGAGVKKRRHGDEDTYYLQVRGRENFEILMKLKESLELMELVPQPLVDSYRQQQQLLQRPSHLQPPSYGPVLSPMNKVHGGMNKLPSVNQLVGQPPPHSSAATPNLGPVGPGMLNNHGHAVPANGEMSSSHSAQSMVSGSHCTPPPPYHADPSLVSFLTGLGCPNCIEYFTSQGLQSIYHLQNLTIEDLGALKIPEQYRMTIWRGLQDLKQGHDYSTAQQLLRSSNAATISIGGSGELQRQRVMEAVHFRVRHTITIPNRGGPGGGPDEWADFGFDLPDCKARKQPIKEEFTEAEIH

GST-p53 = GST-p53 (UniProt P04637); assay: fluorescence polarization; conditions: p53 to saturation, then GST-TAp73 titrated, GST-XIAP had no effect; FP: 4 nM FAM duplex, 100 mM NaCl, 10 mM Tris-HCl pH 7.5, 10% glycerol, 5 mM DTT, 0.2 mg/mL BSA, room temperature; commercial protein; protein details: GST; label: 5' 6-FAM on strand 1
[1] = molecular target: T2, HA-TAp73α (transfected, p53-KO HCT116 lysate) (UniProt O15350); assay: pull-down; conditions: pull-down: 2 ug duplex with lysate, 90 min room temperature, then streptavidin beads 2 h 4 C, protein in a lysate after overexpression, protein details: HA, label: 5' biotin
T2 sequence (looked up, limits assumed): T1 sequence (looked up, limits assumed)

[2] = molecular target: p53 (transfected, p53-KO HCT116 lysate) (UniProt P04637); assay: pull-down; conditions: pull-down: 2 ug duplex with lysate, 90 min room temperature, then streptavidin beads 2 h 4 C, protein in a lysate after overexpression, label: 5' biotin

Row | Sequence | binding result (GST-TAp73α) | binding result (GST-p53) | binding result ([1]; TAp73α expressed alone) | binding result ([1]; co-expressed with p53, binding abolished) | binding result ([2]; co-expressed with TAp73α, binding abolished) | binding result ([2]; p53 expressed alone)
1 | CGCGCCTGCAAGTCCTGACTTGTCCGCGGC (double strand) [PUMA promoter duplex, FAM] | binds more weakly | binds more weakly |  |  |  | 
2 | CGCGCCTGCAAGTCCTGACTTGTCCGCGGC (double strand) [PUMA promoter duplex, biotin] |  |  | binds | no binding | no binding | binds

Construct, isoform or probe ends are uncertain for at least one entry. For part of these data: The comparison behind a weaker result is the experiment's own reference, which may not be listed here. For part of these data: Where a protein sequence is shown, tags need not be part of it. For part of these data: Results from cells or extracts need not show a direct contact. For part of these data: A negative result means that nothing was seen under these conditions. For part of these data: At least one verdict was read from the data and is not stated in words by the source.
